Literature values as cited in patent publication US20150258217A1, “Methods of Synthesizing and Using Peg-Like Fluorochromes” (THE GENERAL HOSPITAL CORPORATION, priority 2012, published 2015).
At least one structure is not confirmed: it was looked up by name or label, or the drawing left a doubt.

Settings: literature/vendor reference value; cited from earlier work

Compound: O=C1OC2(c3ccc(O)cc3Oc3cc(O)ccc32)c2ccccc21 [fluorescein]
- reference quantum yield: 0.18
